Data taken from patent publication US20250144213A1 (UTC THERAPEUTICS SHANGHAI, published 2025).
These are yes or no findings as the source states them, for the method shown. Some entries that bind do so weakly or less than the wild type.

Sequences of proteins named here, by UniProt entry; tags and fusion partners are left off. A change or cut given only in a name is not applied to a line headed by its entry. A line that says so, or that is headed by a name, gives the form on record, which may keep a tag or linker.
mesothelin-Fc recombinant protein (Q13421, form named): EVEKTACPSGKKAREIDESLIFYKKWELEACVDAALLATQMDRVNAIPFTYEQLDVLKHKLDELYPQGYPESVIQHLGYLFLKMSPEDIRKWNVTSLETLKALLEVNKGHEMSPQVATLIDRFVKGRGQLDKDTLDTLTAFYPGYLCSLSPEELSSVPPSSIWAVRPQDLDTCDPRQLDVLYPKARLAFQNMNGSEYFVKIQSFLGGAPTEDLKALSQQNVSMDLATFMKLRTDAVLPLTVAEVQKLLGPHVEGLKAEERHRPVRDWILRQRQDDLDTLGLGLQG

Target: mesothelin-Fc recombinant protein (human) (UniProt Q13421)
Assay: FACS staining of CAR-T cells with mesothelin-Fc recombinant protein (FIG. 19)

| Binder | binding |
| --- | --- |
| anti-mesothelin scFv-M6 (scFv) scFv: EIVMTQSPATLSLSPGERATLSCRASQSIGNSLAWYQQKPGQAPRLLIYDVSNRATGIPARFSGSGSGTDFTLTISSLEPEDFAVYYCQHRYSWPLTFGGGTKVEIKGGGGSGGGGSGGGGSQVQLVQSGGGLVKPGGSLRLSCAASGFTFSDYYMSWIRQAPGKGLEWVSYISSSGSTIYYADSVKGRFTISRDNAKNSLYLQMNSLRAEDTAVYYCARDGYRTHNWFDPWGQGTLVTVSS | binds |
| anti-mesothelin scFv-M7 (scFv) scFv: DIRLTQSPSSLSASLGDRVTITCRASQAISSALAWYQQKPGKAPRLLIYDASTLESGVPSRFSGSGSGTDFTLTISSLQPEDFATYYCQQADSFPLTFGGGTKLEIKGGGGSGGGGSGGGGSQVQLVQSGAEVKKSGESLKISCKGSGYGFGAYWIAWVRQMPGKGLEWMGIIYPGDSRVIYSPYFQGQVTISADKSISTAYLQWSSLKASDTAMYYCARFGGPKFATNWFDIWGQGTTVTVSS | binds |
| anti-mesothelin scFv-M8 (scFv) scFv: DIQLTQSPSSLSASVGDRVTITCRASQSISSSLNWYQQKPGKAPKLLIYAASSLQSGVPSRFSGSGSGTDFTLTISSLQPEDFATYSCQQSYSTPLTFGGGTKVEIKGGGGSGGGGSGGGGSQVHLVESGGGVVQPGRSLRVSCAASGFTFSGYAMYWVRQAPGKGLEYVSAITTNGGSTNYADSVKGRFTISRDNSKNTLYLQMSSLRAGDTAVYYCARGAPGYRGYYMDVWGKGTTVTVSS | binds |
| anti-mesothelin scFv-M12 (scFv) scFv: AIRLTQSPSLLSASVGDRVTVTCRASQGGGNYLAWYQQKPGKAPKLLIYGASKLQSGVPSRFSGSGSGTEFTLTISSLQPEDFATYYCQQLNSYPVTFGQGTKVDIKGGGGSGGGGSGGGGSEVQLVESGAEVKKPGASVKVSCKASGYTFTTYYIHWVRQAPGQGLEWMGIINPSSGSTTYTQKFQGRVTMTRDTSTSTVYIELSGLRSEDTAVYYCARGETLRGYFDYWGQGTLVTVSS | binds |
| anti-mesothelin scFv-M13 (scFv) scFv: AIRMTQSPSSLSASVGDRVTITCRASQGISNSLAWYQQKPGKAPKLLLYAASRLESGVPSRFSGSGSGTDYTLTISSLQPEDFATYYCQQYYSTPFTFGPGTKLEIKGGGGSGGGGSGGGGSQVQLVQSGAEVKKPGSSVKVSCKTSADTFSANTINWVRQAPGHGLEWMGRIIPSLNIRDYAQEFQGRVTFTADESTNTVYMQLTSLRSEDTAVYYCARDPGSTWSPNQFFPHWGQGTLVTVSS | binds |
| anti-mesothelin scFv-M20 (scFv) scFv: AIQMTQSPSSLSASVGNRVTITCRASQGISSAVAWYQQKPGKPPKLLISYASSLESGVPSRFSGSGSGTDFSLTISSLQPEDFATYFCQQFNSYPLTFGGGTKVEIKGGGGSGGGGSGGGGSQVQLVQSGAEVRKPGESLKISCKGSGYSFRDSWIAWVRQMPGQGLEWMGIIFPGDSNPIYSPSFQGQVTISADTSISTTFLQWRSLKASDSAIYYCARHAAWGAGWFDPWGQGTLVTVSS | binds |
| anti-mesothelin scFv-M24 (scFv) scFv: QPVLTQPPSASGTPGQRVTISCSGSSSNIGSNYVYWYQQFPGTAPKLLIYMNNQRPSGVPDRFSGSKSGTSASLAISGLRSEDEADYYCAARDDSLSGYVTFGGGTKLTVLGGGGSGGGGSGGGGSEVHLVESGGGLVQPGGSLRLSCAASGFTFSSYAMSWVRQAPGKGLEWVSAISGSGGSTYYADSVKGRFTISRDNSKNTLYLQMNSLKTEDTAVYYCTRGVATFDYWGQGTLVTVSS | binds |
| anti-mesothelin scFv-M27 (scFv) scFv: EIVLTQSPGTLSLSPGERATLSCRASQPIVASHLAWYQHKPGQAPRLLIYGASTRAAGIPDRFSGSGSGTDFTLTISRLEPEDFAVYFCQQYGISPFTFGPGTKVDIKGGGGSGGGGSGGGGSQVQLVQSGAEVKKPGESLKISCQGSGYSFTDYWIGWVRQAPGQGLEWMGWITPNNGNTNYAPKFQGRVTLTTDTSTSTAYMELRSLTSDDTAVYFCARRGRNSSGYLYYYSMDVWGQGTTVTVSS | binds |
| anti-mesothelin scFv-M28 (scFv) scFv: QSALTQPPSASGSPGQSVTISCSGTSSDVGGYNFVSWYQHHPGKAPKLMIYEVSKRPSGVPDRFSGSKSGNTASLTVSGLQAEDEADYYCSSYAGRNNPYLFGTGTKLTVLGGGGSGGGGSGGGGSQLQLQESGAEVKKPGSSVKVSCKASGGTFSSYAISWVRQAPGQGLEWMGGIIPIFGTANYAQKFQGRVTITADESTSTAYMELSSLRSEDTAVYYCARDLGGYSYGHGLDYWGQGTLVTVSS | binds |
| anti-mesothelin scFv-M31 (scFv) scFv: QSALTQPPSASGSPGQSVTISCTGTSSDIGGYNSVSWYQQHPGKAPKLIIYGVSRRPSGVPDRFSGSKSANTASLTVSGLQAVDEADYYCSSYGGSNNLLFGGGTKLTVLGGGGSGGGGSGGGGSEVHLVESGGGLAQPGGSLRLSCAASGFSFSSSWMAWVRQAPGKGLEWVANIKQDGSSQYYVDSVKGRFTISRDNAKNSLSLQMNSLRAEDTAVYYCARDIWYSIDYWGQGTLVTVSS | binds |
| anti-mesothelin scFv-M32 (scFv) scFv: DIRMTQSPSSLSASVGDRVTVTCQASEDINNSLNWYQQKPGKAPQLLIYDASDLETGVPSRFSGRGSGRDFTLTISSLQPEDFATYYCQQLNSYPLTFGGGTKLEIKGGGGSGGGGSGGGGSQVQLVQSGAEVKKPGASVKVSCKASGFTFIGYYLHWVRQAPGQGLEWMGIINPSGGRTSMAQKFQGRVSMTTDTSTGTVYLDLGRLGSDDTAVYYCARADNWNAGSMDVWGNGTTVTVSS | binds |
| anti-mesothelin scFv-M37 (scFv) scFv: DIVMTQTPSSLSASVGDRVTITCRASQGISNYLAWFQQKPGKAPKPLIYAASSLQSGVPSKFSGSGSGTDFTLTISNLQPEDFATYICQQYSSYPITFGQGTRLEIKGGGGSGGGGSGGGGSQLQLQESGPGLVKPSETLSLTCAVSGGSISPYYWTWIRQSPGKAMEWMGYIHYSGRTNYNPSLESRATFSVDTSKNQISLKLNSVTAADTAVYYCTKVGDPGLFDYWGPGTLVTVSS | binds |
